According to publication PMC10128056:
No constants are given. Whether binding was seen depends on the method and setting. Some entries that bind do so weakly or less than the wild type.

T1: B. subtilis GlmS (B. subtilis) (UniProt P0CI73)
T1 sequence: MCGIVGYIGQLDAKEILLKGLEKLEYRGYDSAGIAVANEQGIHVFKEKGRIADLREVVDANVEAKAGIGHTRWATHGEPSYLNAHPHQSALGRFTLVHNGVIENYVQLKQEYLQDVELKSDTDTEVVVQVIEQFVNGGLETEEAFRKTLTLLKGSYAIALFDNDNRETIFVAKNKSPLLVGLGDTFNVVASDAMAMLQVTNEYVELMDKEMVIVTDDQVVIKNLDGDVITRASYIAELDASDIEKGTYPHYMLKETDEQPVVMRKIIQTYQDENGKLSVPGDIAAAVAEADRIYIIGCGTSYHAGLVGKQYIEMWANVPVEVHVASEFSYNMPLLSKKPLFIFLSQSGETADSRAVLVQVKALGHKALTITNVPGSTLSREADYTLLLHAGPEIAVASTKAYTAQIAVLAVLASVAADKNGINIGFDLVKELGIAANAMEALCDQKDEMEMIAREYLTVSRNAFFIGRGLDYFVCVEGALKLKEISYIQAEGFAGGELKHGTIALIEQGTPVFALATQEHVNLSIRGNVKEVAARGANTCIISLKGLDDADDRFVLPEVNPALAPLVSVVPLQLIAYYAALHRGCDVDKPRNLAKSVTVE

B1: L. monocytogenes GlmS (enzyme, UniProt Q8Y915 1-601)
chain: MCGIVGYIGTNNAKGILLEGLEKLEYRGYDSAGIALQNKELVTVVKEKGRIADLASLVPSDAFGTTGIGHTRWATHGKPNHENAHPHQSKSGRFTIVHNGVIENYTLLKEEYLKNHSFVSDTDTEVIVQLIELFAAELSTKEAFKKALSLLHGSYAICLIDQTNTETLYAAKNKSPLLIGKGENFNVIASDAMAVLKETDEFVEIMDKEIVIVTKDGFTLETLEGEEITRASYKAELDASDIEKGTYPHYMLKEIDEQPAVTRKIIQAYQDEAGEINVDKTIIDEILSSDRIHIVACGTSYHAGLVGKNLIEKMAKIPVEVHVSSEFAYNLPLMSKKPLFIFITQSGETADSRQCLVKVKELGYRTLTLTNVPGSTLDREADHSMYLYAGPEIAVASTKAYTAQISVLAVLAVSLGREIGDEEALNINLAAELGIVATAMEAMVSSKEVIEHIAGEYLATSRNAFFLGRNIDYFVAMEAALKLKEISYIQAEGFASGELKHGTIALIEDGTPVLALITQESINWNIRGNVNEVLARGAKTCIFAMENVAQPGDRFVIPQVHPLLTPLASVIPCQLLAYYAALHRDCDVDKPRNLAKSVTVE
B2: B. subtilis GlmR (protein, UniProt O06974 1-317)
chain: MGQKPKIAIFGGGTGLSVLLRGLKHKPVDITAIVTVADDGGSSGRLRNELKIPPPGDIRNVLAALSDVEPLVEDLFQHRFNKGNDLTGHSLGNLILAAMTNITGDFFHAVTEMSKVLNVRGKVLPAANASVVLHAEMEDGRVVSGESTIPEYGQRIKRVFLTPEQIDPLPETIDVIREADLIIIGPGSLYTSILPNLLVPKIGEEVIKAPAKKVYICNVMTQPGETLHYTAADHVKALNQHMGCGFIDTILVNSEDIPDEIKRKYEMESARPVDFDIEELKAMGLEVIRDQIVTYKNDVIRHDTHKVASLLVDLLKE
B3: B. subtilis GlmS (enzyme, UniProt P0CI73 1-600)
chain: MCGIVGYIGQLDAKEILLKGLEKLEYRGYDSAGIAVANEQGIHVFKEKGRIADLREVVDANVEAKAGIGHTRWATHGEPSYLNAHPHQSALGRFTLVHNGVIENYVQLKQEYLQDVELKSDTDTEVVVQVIEQFVNGGLETEEAFRKTLTLLKGSYAIALFDNDNRETIFVAKNKSPLLVGLGDTFNVVASDAMAMLQVTNEYVELMDKEMVIVTDDQVVIKNLDGDVITRASYIAELDASDIEKGTYPHYMLKETDEQPVVMRKIIQTYQDENGKLSVPGDIAAAVAEADRIYIIGCGTSYHAGLVGKQYIEMWANVPVEVHVASEFSYNMPLLSKKPLFIFLSQSGETADSRAVLVQVKALGHKALTITNVPGSTLSREADYTLLLHAGPEIAVASTKAYTAQIAVLAVLASVAADKNGINIGFDLVKELGIAANAMEALCDQKDEMEMIAREYLTVSRNAFFIGRGLDYFVCVEGALKLKEISYIQAEGFAGGELKHGTIALIEQGTPVFALATQEHVNLSIRGNVKEVAARGANTCIISLKGLDDADDRFVLPEVNPALAPLVSVVPLQLIAYYAALHRGCDVDKPRNLAKSVTVE

How the values were obtained:
Assay in all cases: two-hybrid; BACTH bacterial two-hybrid in BTH101 E. coli; each protein as N- and C-terminal fusion to T18 and T25; blue-white assay on X-Gal plates (24 h at 30°C, four replicates) and quantitative β-galactosidase assays (triplicate, normalised to the Zip positive control)
[1] = molecular target: L. monocytogenes GlmS (L. monocytogenes) (UniProt Q8Y915)
[2] = molecular target: B. subtilis GlmR (B. subtilis) (UniProt O06974)
[3] = molecular target: T1, B. subtilis GlmS (B. subtilis)

binding [1] | binding [2] | binding [3] | Binder
binds | – | – | B1
– | binds | binds | B2
– | – | binds | B3
